Measured values reported in the supplement of paper PMC6411743.
± gives the standard deviation of the averaged measurements. The entries are a selection whose mix differs from that of the whole data set.

The chains behind the UniProt entries cited, without tags or fusion partners. Where a name states a change or a piece, a line headed by the entry shows the natural chain unless it says otherwise.
UniProt Q9P2D1: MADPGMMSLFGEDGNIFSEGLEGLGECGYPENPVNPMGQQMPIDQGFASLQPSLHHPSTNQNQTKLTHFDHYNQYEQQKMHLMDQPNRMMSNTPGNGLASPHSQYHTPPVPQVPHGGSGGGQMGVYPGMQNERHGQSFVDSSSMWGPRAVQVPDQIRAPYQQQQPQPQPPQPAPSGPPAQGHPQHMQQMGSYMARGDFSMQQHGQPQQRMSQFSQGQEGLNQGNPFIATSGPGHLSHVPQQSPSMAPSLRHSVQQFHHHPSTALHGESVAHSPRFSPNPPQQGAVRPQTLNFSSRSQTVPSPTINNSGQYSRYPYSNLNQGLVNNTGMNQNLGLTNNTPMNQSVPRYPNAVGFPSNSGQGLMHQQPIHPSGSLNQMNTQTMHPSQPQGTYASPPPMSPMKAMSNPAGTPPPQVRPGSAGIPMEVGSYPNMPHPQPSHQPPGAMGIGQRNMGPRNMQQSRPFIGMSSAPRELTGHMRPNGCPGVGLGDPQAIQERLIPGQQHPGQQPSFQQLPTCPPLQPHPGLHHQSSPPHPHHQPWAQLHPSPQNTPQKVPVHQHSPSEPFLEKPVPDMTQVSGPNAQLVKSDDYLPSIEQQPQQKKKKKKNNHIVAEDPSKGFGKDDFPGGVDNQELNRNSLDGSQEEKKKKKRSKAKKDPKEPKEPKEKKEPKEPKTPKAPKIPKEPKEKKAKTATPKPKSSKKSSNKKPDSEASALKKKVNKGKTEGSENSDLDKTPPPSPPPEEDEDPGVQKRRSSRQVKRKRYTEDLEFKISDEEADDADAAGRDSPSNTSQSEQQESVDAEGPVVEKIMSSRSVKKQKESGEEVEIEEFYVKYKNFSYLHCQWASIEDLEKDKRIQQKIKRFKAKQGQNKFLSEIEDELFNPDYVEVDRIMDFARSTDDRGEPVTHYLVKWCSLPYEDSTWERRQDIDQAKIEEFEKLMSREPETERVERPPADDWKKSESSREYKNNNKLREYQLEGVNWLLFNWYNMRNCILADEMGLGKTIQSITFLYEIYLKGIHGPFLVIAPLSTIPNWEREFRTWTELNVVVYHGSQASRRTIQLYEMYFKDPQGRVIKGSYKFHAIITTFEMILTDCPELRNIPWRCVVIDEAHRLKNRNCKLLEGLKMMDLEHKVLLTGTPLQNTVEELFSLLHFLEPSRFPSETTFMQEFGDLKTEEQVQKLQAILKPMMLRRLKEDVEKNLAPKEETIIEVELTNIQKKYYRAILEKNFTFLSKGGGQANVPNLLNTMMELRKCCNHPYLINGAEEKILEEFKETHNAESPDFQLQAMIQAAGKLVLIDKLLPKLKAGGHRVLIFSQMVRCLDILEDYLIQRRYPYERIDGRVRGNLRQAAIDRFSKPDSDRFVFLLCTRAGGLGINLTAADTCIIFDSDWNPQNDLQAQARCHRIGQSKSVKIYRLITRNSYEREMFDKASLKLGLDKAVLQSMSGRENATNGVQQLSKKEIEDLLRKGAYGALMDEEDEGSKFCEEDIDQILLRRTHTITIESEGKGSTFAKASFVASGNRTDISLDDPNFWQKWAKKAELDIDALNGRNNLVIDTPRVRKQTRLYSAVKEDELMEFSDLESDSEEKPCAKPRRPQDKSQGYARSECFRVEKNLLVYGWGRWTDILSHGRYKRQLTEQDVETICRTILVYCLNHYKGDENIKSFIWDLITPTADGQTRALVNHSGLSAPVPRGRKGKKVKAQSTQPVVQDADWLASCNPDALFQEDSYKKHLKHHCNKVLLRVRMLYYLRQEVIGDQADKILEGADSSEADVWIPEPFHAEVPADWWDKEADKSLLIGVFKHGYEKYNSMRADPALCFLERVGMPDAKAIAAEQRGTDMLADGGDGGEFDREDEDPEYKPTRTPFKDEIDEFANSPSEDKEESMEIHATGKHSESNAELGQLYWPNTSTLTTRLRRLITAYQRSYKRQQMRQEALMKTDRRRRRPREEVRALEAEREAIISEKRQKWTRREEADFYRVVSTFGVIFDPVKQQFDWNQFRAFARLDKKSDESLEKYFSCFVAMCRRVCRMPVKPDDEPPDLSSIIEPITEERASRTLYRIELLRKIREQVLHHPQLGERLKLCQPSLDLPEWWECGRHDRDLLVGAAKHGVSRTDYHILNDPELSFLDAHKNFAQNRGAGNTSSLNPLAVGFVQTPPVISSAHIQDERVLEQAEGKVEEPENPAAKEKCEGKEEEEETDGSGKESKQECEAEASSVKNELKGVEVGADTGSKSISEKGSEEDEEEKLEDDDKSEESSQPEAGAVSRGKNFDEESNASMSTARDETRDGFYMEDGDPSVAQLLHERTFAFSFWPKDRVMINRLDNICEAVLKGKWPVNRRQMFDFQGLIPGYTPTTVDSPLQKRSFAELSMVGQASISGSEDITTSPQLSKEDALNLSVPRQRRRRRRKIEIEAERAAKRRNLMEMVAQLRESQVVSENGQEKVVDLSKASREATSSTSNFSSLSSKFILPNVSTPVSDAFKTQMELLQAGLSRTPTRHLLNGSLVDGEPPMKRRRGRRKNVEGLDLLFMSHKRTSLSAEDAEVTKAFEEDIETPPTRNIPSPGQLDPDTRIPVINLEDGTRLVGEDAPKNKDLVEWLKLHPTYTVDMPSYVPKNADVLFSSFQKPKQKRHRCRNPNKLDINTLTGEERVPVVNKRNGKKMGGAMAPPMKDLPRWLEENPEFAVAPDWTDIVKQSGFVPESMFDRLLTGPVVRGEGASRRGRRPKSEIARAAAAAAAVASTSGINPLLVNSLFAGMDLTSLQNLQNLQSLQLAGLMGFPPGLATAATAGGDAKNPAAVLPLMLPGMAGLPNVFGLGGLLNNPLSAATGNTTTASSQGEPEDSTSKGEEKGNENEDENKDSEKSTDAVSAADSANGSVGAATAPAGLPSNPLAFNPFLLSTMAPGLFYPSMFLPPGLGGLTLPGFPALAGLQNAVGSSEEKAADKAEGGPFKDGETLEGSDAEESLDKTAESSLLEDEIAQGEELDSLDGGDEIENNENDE
UniProt Q9UBG0: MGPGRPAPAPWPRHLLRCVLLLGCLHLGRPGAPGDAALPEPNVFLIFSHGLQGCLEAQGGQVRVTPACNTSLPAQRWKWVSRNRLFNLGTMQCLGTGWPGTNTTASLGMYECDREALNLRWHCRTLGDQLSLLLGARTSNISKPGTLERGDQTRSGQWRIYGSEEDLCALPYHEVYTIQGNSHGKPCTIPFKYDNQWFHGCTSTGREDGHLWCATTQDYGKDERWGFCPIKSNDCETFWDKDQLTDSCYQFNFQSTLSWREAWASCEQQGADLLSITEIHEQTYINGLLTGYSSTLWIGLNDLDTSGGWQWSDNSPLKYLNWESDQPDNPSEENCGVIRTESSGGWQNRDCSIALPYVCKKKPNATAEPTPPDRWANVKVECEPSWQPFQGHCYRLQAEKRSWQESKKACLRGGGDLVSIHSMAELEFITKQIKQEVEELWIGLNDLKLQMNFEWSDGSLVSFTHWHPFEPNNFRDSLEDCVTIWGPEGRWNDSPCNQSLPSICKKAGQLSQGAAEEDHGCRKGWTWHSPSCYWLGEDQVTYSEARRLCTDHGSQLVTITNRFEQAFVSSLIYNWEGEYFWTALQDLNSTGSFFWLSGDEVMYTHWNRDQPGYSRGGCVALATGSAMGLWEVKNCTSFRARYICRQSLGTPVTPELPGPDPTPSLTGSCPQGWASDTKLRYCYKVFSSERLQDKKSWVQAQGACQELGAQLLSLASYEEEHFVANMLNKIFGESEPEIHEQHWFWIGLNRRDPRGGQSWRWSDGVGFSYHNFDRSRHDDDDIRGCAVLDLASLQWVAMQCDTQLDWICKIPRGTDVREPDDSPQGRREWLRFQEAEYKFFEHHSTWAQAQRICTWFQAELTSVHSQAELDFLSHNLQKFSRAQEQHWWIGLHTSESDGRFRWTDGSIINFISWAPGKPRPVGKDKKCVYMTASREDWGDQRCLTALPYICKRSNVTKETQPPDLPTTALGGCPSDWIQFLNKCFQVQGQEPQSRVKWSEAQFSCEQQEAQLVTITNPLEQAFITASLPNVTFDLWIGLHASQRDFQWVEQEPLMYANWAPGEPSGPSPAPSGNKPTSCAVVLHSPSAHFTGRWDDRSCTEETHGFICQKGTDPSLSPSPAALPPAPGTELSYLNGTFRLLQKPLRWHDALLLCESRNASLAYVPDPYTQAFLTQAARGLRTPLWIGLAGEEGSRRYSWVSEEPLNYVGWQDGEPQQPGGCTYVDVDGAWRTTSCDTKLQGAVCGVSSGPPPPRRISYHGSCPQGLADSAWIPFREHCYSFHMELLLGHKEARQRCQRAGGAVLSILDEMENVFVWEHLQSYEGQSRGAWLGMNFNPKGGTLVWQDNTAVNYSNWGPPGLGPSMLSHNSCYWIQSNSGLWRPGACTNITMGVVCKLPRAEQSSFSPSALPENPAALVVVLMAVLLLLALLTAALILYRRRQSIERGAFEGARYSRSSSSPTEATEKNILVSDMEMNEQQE
UniProt Q9NVE7: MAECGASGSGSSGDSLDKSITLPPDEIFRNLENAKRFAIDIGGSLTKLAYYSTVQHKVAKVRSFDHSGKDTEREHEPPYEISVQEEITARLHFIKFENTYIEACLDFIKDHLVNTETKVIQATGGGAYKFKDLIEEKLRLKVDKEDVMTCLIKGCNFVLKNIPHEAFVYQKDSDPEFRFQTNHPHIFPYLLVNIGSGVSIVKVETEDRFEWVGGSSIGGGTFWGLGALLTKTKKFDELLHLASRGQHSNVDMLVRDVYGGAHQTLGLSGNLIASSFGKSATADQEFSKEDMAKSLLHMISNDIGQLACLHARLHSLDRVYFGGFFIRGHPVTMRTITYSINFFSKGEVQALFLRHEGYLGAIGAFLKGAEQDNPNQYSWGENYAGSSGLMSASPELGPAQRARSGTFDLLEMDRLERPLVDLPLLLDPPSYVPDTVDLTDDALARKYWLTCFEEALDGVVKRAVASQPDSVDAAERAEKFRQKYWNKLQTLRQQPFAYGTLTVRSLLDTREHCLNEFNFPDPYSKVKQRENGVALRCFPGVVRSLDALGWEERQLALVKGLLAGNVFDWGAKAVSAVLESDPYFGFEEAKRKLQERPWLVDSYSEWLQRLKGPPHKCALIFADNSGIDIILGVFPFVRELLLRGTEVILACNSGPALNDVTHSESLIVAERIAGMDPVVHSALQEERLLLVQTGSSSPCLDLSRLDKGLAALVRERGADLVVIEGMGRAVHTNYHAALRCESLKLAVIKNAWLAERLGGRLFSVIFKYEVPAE
UniProt Q9NQT4, whole entry: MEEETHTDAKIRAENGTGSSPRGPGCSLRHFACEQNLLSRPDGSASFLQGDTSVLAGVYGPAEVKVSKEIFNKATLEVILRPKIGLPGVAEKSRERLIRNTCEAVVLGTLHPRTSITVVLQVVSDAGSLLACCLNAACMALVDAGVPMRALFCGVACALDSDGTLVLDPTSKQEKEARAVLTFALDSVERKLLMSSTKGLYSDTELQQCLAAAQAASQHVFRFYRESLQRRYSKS
UniProt Q9NZ63: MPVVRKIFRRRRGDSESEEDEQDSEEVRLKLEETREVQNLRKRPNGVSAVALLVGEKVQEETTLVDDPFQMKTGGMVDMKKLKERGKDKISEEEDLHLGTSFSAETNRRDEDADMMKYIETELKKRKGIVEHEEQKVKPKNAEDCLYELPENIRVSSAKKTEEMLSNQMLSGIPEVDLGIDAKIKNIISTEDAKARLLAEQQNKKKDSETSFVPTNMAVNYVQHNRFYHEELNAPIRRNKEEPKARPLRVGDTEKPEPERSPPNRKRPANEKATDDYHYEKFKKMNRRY
UniProt Q9NRK6: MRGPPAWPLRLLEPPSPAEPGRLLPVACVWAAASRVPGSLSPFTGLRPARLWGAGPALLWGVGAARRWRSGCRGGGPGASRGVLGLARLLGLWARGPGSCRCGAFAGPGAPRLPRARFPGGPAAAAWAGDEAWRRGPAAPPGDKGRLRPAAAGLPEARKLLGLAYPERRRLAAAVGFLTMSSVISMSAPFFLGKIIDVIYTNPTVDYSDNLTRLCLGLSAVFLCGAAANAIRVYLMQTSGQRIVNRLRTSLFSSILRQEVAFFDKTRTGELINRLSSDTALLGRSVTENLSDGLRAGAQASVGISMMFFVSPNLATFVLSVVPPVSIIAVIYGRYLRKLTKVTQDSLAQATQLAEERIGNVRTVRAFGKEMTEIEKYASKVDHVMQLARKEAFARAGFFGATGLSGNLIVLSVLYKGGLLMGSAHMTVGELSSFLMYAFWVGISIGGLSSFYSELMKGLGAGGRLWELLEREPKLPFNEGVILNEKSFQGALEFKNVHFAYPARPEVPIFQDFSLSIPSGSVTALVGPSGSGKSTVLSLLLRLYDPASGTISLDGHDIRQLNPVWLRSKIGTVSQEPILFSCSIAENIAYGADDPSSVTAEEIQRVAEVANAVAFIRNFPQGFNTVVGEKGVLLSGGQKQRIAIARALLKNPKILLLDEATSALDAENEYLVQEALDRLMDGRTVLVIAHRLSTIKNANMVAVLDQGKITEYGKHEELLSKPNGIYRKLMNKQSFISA

Compound: Nc1ncnc2c1ncn2[C@@H]1O[C@H](COP(=O)(O)OP(=O)(O)NP(=O)(O)O)[C@@H](O)[C@H]1O [adenylyl imidodiphosphate]
Test: NP40-soluble protein abundance relative to vehicle (solubility fold change) (ratio); higher = more soluble protein in presence of AMP-PNP
How it was run: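 Across three independent experiments, values are fold changes against the detergent-processed vehicle for each replicate, based on vsn-normalised intensities. The samples were Jurkat crude lysate treated with eight concentrations (0.1 to 10 mM) for 10 min at room temperature and then 3 min at 37 °C. Lysate was solubilised with 0.8% NP40 and benzonase, ultracentrifuged, and the supernatant analysed by TMT-labelled LC-MS/MS.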

Target	NP40-soluble protein abundance (concentration: 1mM)	NP40-soluble protein abundance (concentration: 2mM)	NP40-soluble protein abundance (concentration: 4mM)	NP40-soluble protein abundance (concentration: 6mM)	NP40-soluble protein abundance (concentration: 8mM)	NP40-soluble protein abundance (concentration: 10mM)
KIF13B (UniProt Q9NQT8)	0.994 ± 0.024	0.99038 ± 0.00094	1 ± 0.023	0.971 ± 0.025	0.9428 ± 0.0089	0.977 ± 0.013
UniProt Q9NZT2 and related entries	1.01 ± 0.021	1.07 ± 0.1	1.05 ± 0.03	1.03 ± 0.03	1.01 ± 0.042	1.05 ± 0.07
UniProt Q9NRX2 and related entries	0.965 ± 0.064	0.984 ± 0.055	0.973 ± 0.054	0.977 ± 0.043	0.964 ± 0.078	0.99 ± 0.066
CHD7 (UniProt Q9P2D1)	1.01 ± 0.028	1.03 ± 0.025	0.991 ± 0.011	0.953 ± 0.021	0.958 ± 0.036	0.96 ± 0.034
MRC2 (UniProt Q9UBG0)	1.015 ± 0.01	1.03 ± 0.028	1.02 ± 0.03	1.009 ± 0.0082	1.03 ± 0.029	1.016 ± 0.0095
UniProt Q9NPL8	0.968 ± 0.015	0.93 ± 0.016	0.972 ± 0.051	0.998 ± 0.011	0.975 ± 0.018	0.953 ± 0.029
ABCF3 (UniProt Q9NUQ8)	1.05 ± 0.044	0.994 ± 0.069	1.06 ± 0.051	1.02 ± 0.06	1.05 ± 0.064	1.01 ± 0.048
UniProt Q9NRX1 and related entries	1 ± 0.057	1 ± 0.035	1.01 ± 0.011	1.03 ± 0.011	1.072 ± 0.01	1.12 ± 0.033
GTSE1 (UniProt Q9NYZ3)	1.01 ± 0.026	1.03 ± 0.029	1.03 ± 0.054	1.03 ± 0.041	1.02 ± 0.069	1.04 ± 0.06
PANK4 (UniProt Q9NVE7)	0.992 ± 0.029	0.98 ± 0.066	1.01 ± 0.039	0.984 ± 0.026	1 ± 0.052	0.981 ± 0.041
EXOSC5 (UniProt Q9NQT4)	1.019 ± 0.0097	1.06 ± 0.046	1.08 ± 0.029	1.14 ± 0.045	1.14 ± 0.087	1.19 ± 0.11
MRPL15 (UniProt Q9P015)	0.953 ± 0.1	0.95 ± 0.057	0.958 ± 0.12	0.95 ± 0.14	0.96 ± 0.13	0.962 ± 0.21
C9orf78 (UniProt Q9NZ63)	0.999 ± 0.047	1.03 ± 0.038	0.982 ± 0.055	0.971 ± 0.036	0.966 ± 0.034	0.939 ± 0.078
UniProt Q9NXR1 and related entries	0.994 ± 0.029	1.07 ± 0.041	1.01 ± 0.025	0.978 ± 0.019	0.985 ± 0.026	0.9852 ± 0.0096
UniProt Q9P0J0 and related entries	0.912 ± 0.015	0.851 ± 0.095	0.89 ± 0.021	0.856 ± 0.017	0.877 ± 0.037	0.792 ± 0.047
WDR70 (UniProt Q9NW82)	1.03 ± 0.031	1.02 ± 0.034	1.02 ± 0.03	1.025 ± 0.0076	1.04 ± 0.017	1.03 ± 0.02
CHST12 (UniProt Q9NRB3)	1.001 ± 0.0077	0.999 ± 0.01	0.9935 ± 0.0064	1 ± 0.016	1.017 ± 0.0078	1.011 ± 0.0063
MRPL16 (UniProt Q9NX20)	1.02 ± 0.031	0.996 ± 0.06	1 ± 0.06	1.02 ± 0.12	0.994 ± 0.098	1.01 ± 0.13
UniProt Q9NZ09 and related entries	0.97 ± 0.013	1.05 ± 0.054	0.993 ± 0.02	0.987 ± 0.034	0.964 ± 0.052	0.974 ± 0.059
UniProt Q9NUY8 and related entries	0.961 ± 0.0094	0.999 ± 0.026	0.986 ± 0.014	1 ± 0.035	0.991 ± 0.027	1.01 ± 0.031

Target	NP40-soluble protein abundance (concentration: 1mM)	NP40-soluble protein abundance (concentration: 2mM)	NP40-soluble protein abundance (concentration: 4mM)	NP40-soluble protein abundance (concentration: 6mM)	NP40-soluble protein abundance (concentration: 8mM)	NP40-soluble protein abundance (concentration: 10mM)
UniProt Q9P0W2 and related entries	0.947 ± 0.025	0.99 ± 0.033	0.962 ± 0.03	0.965 ± 0.03	0.955 ± 0.033	0.9461 ± 0.0086
UniProt Q9NW68 and related entries	0.985 ± 0.038	1.05 ± 0.038	0.994 ± 0.065	0.99 ± 0.038	0.958 ± 0.024	0.951 ± 0.082
DIP2B (UniProt Q9P265)	0.967 ± 0.037	0.951 ± 0.04	0.976 ± 0.023	0.971 ± 0.027	0.974 ± 0.013	0.952 ± 0.032
UniProt Q9P2X0-2|Q9P2X0	0.968 ± 0.026	0.929 ± 0.032	0.957 ± 0.027	0.98 ± 0.04	1 ± 0.019	0.933 ± 0.018
UniProt Q9NRY4	0.9859 ± 0.0086	0.971 ± 0.035	0.999 ± 0.028	0.984 ± 0.03	0.964 ± 0.036	0.935 ± 0.024
DPP3 (UniProt Q9NY33)	0.955 ± 0.03	0.898 ± 0.035	0.934 ± 0.037	1 ± 0.067	0.996 ± 0.043	0.9705 ± 0.0082
ABHD10 (UniProt Q9NUJ1)	0.962 ± 0.017	0.927 ± 0.063	0.934 ± 0.043	1.02 ± 0.028	0.989 ± 0.016	0.997 ± 0.039
CDKN2AIP (UniProt Q9NXV6)	0.998 ± 0.025	1.04 ± 0.061	0.9964 ± 0.0077	1.009 ± 0.01	0.993 ± 0.029	1.03 ± 0.023
MDN1 (UniProt Q9NU22)	0.974 ± 0.088	0.946 ± 0.15	1 ± 0.1	0.97 ± 0.091	0.978 ± 0.092	0.98 ± 0.1
PIH1D1 (UniProt Q9NWS0)	1.01 ± 0.032	1.048 ± 0.0085	1.03 ± 0.04	0.98 ± 0.06	0.977 ± 0.019	0.983 ± 0.02
FAM118A (UniProt Q9NWS6)	0.992 ± 0.012	1.003 ± 0.0048	1 ± 0.023	1 ± 0.012	0.998 ± 0.048	0.964 ± 0.039
UniProt Q9NS23 and related entries	0.986 ± 0.057	0.972 ± 0.036	0.978 ± 0.027	0.98 ± 0.024	0.975 ± 0.0073	0.991 ± 0.027
KLHL11 (UniProt Q9NVR0)	0.965 ± 0.019	0.942 ± 0.052	0.969 ± 0.045	0.921 ± 0.034	0.94 ± 0.022	0.932 ± 0.043
UniProt Q9NUQ3	1.03 ± 0.023	1.09 ± 0.066	1.04 ± 0.029	1.07 ± 0.03	1.04 ± 0.013	1.04 ± 0.03
UniProt Q9NSG2 and related entries	0.991 ± 0.028	0.991 ± 0.015	0.993 ± 0.011	0.955 ± 0.022	0.964 ± 0.031	0.968 ± 0.015
UniProt Q9P2K8 and related entries	0.981 ± 0.037	0.959 ± 0.055	0.994 ± 0.021	0.952 ± 0.012	0.9529 ± 0.0031	0.941 ± 0.023
TMEM9B (UniProt Q9NQ34)	1.01 ± 0.032	1.05 ± 0.028	1.01 ± 0.057	0.978 ± 0.017	0.982 ± 0.032	0.986 ± 0.013
UniProt Q9NVH0 and related entries	0.999 ± 0.034	1.03 ± 0.04	1.01 ± 0.035	0.977 ± 0.031	0.965 ± 0.024	0.957 ± 0.024
GEMIN8 (UniProt Q9NWZ8)	0.959 ± 0.016	0.9461 ± 0.0079	0.952 ± 0.044	0.918 ± 0.039	0.944 ± 0.055	0.906 ± 0.021
UniProt Q9NSC5 and related entries	0.985 ± 0.058	1.01 ± 0.031	1.02 ± 0.034	0.995 ± 0.042	0.99 ± 0.053	1.01 ± 0.089

Whole records as entered above:
UniProt Q9NVH0 and related entries is entered as NP40-soluble protein abundance (concentration: 1mM): 0.999 ± 0.034; NP40-soluble protein abundance (concentration: 2mM): 1.03 ± 0.04; NP40-soluble protein abundance (concentration: 4mM): 1.01 ± 0.035; NP40-soluble protein abundance (concentration: 6mM): 0.977 ± 0.031; NP40-soluble protein abundance (concentration: 8mM): 0.965 ± 0.024; NP40-soluble protein abundance (concentration: 10mM): 0.957 ± 0.024
UniProt Q9NSC5 and related entries is entered as NP40-soluble protein abundance (concentration: 1mM): 0.985 ± 0.058; NP40-soluble protein abundance (concentration: 2mM): 1.01 ± 0.031; NP40-soluble protein abundance (concentration: 4mM): 1.02 ± 0.034; NP40-soluble protein abundance (concentration: 6mM): 0.995 ± 0.042; NP40-soluble protein abundance (concentration: 8mM): 0.99 ± 0.053; NP40-soluble protein abundance (concentration: 10mM): 1.01 ± 0.089
UniProt Q9NUQ3 is entered as NP40-soluble protein abundance (concentration: 1mM): 1.03 ± 0.023; NP40-soluble protein abundance (concentration: 2mM): 1.09 ± 0.066; NP40-soluble protein abundance (concentration: 4mM): 1.04 ± 0.029; NP40-soluble protein abundance (concentration: 6mM): 1.07 ± 0.03; NP40-soluble protein abundance (concentration: 8mM): 1.04 ± 0.013; NP40-soluble protein abundance (concentration: 10mM): 1.04 ± 0.03

The listing continues.

Target	NP40-soluble protein abundance (concentration: 1mM)	NP40-soluble protein abundance (concentration: 2mM)	NP40-soluble protein abundance (concentration: 4mM)	NP40-soluble protein abundance (concentration: 6mM)	NP40-soluble protein abundance (concentration: 8mM)	NP40-soluble protein abundance (concentration: 10mM)
RMND1 (UniProt Q9NWS8)	0.97 ± 0.042	0.971 ± 0.051	0.955 ± 0.05	0.955 ± 0.034	0.963 ± 0.058	0.954 ± 0.062
UniProt Q9P287 and related entries	1.02 ± 0.016	1.009 ± 0.0091	1.03 ± 0.038	1.03 ± 0.042	1.02 ± 0.054	1.03 ± 0.056
LANCL2 (UniProt Q9NS86)	0.975 ± 0.017	0.954 ± 0.019	0.982 ± 0.032	0.998 ± 0.028	1.03 ± 0.038	0.98 ± 0.035
UniProt Q9NQY0 and related entries	1.06 ± 0.039	1.06 ± 0.053	1.05 ± 0.073	1.01 ± 0.032	1.04 ± 0.02	1 ± 0.011
UniProt Q9NWV4	0.99 ± 0.02	1.03 ± 0.066	1.01 ± 0.066	1.13 ± 0.14	1.09 ± 0.097	1.14 ± 0.1
GSKIP (UniProt Q9P0R6)	0.957 ± 0.014	1.01 ± 0.046	0.99 ± 0.024	0.961 ± 0.02	0.9375 ± 0.0089	0.8932 ± 0.0059
NIT2 (UniProt Q9NQR4)	1.02 ± 0.029	0.969 ± 0.078	0.988 ± 0.043	0.968 ± 0.015	0.971 ± 0.054	0.966 ± 0.054
DDX21 (UniProt Q9NR30)	1.21 ± 0.11	1.25 ± 0.13	1.39 ± 0.23	1.55 ± 0.31	1.66 ± 0.38	1.78 ± 0.4
UniProt Q9P2R3 and related entries	0.987 ± 0.019	0.935 ± 0.049	1 ± 0.026	0.976 ± 0.039	1.002 ± 0.0045	0.9782 ± 0.0074
RBM28 (UniProt Q9NW13)	1.05 ± 0.03	1.08 ± 0.016	1.08 ± 0.016	1.12 ± 0.017	1.12 ± 0.028	1.16 ± 0.038
ABCB10 (UniProt Q9NRK6)	0.952 ± 0.031	0.876 ± 0.076	0.958 ± 0.027	0.929 ± 0.045	0.985 ± 0.02	0.9181 ± 0.0057
UniProt Q9NZJ7 and related entries	0.964 ± 0.042	1.01 ± 0.041	0.99 ± 0.023	0.946 ± 0.035	0.964 ± 0.017	0.962 ± 0.033
IRAK4 (UniProt Q9NWZ3)	1.01 ± 0.041	0.975 ± 0.076	0.977 ± 0.046	0.986 ± 0.056	0.969 ± 0.071	0.96 ± 0.094
INTS10 (UniProt Q9NVR2)	0.966 ± 0.014	0.932 ± 0.041	1 ± 0.03	1.03 ± 0.048	1.02 ± 0.012	1.03 ± 0.024
MED4 (UniProt Q9NPJ6)	1.01 ± 0.011	1.007 ± 0.0065	1.01 ± 0.022	1.01 ± 0.042	0.999 ± 0.039	0.992 ± 0.041
UniProt Q9NZN8 and related entries	0.97 ± 0.034	1.05 ± 0.034	1.034 ± 0.01	1.07 ± 0.12	1.02 ± 0.095	1.1 ± 0.1
UniProt Q9NW81 and related entries	1 ± 0.03	1.01 ± 0.041	1.01 ± 0.053	0.975 ± 0.011	0.982 ± 0.042	1.01 ± 0.041
METTL1 (UniProt Q9UBP6)	0.972 ± 0.013	0.996 ± 0.022	1.01 ± 0.032	1 ± 0.05	1.01 ± 0.024	0.98 ± 0.018
PAK1IP1 (UniProt Q9NWT1)	1.02 ± 0.013	1.05 ± 0.042	1.07 ± 0.017	1.147 ± 0.011	1.166 ± 0.011	1.22 ± 0.033
TERF2IP (UniProt Q9NYB0)	1.02 ± 0.016	1.07 ± 0.05	1.03 ± 0.031	1.02 ± 0.015	1 ± 0.012	1.02 ± 0.03
